PubChem BioAssay AID1671195, Yale University – 2021
Here is an unselected part of about 22,000 reagents. Of all reagents, about 1,510 (6.9%) got an active call. 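Active includes knockdowns raising or lowering LDL uptake; positive z-scores mean more uptake, negative mean less.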 Unmarked entries are inactive.

Screen: 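Genes whose knockdown alters LDL uptake in liver cancer cells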 (primary screen)
System: human Huh7 hepatoma cells
Reagent: siRNA pool against human genes, 18 nM
Timing: about 2 to 2.5 days of knockdown, then 8 h LDL uptake
Challenge: DiI-labelled LDL at 30 µg/ml for 8 h, in lipoprotein-deficient serum medium
Read-out: 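Per-cell DiI-LDL intensity by automated imaging; well means scaled to the plate median and given as a robust z-score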
Scale: robust z-score: higher = more LDL uptake after knockdown
Rule for the call: 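Active when two or more replicates show a robust z-score above 2 or below -2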

| target | PubChem SID | robust z-score, replicate 1 | robust z-score, replicate 2 | robust z-score, replicate 3 |
| --- | --- | --- | --- | --- |
| LINC01097 | SID442884488 | -2.09 (active) | -2.21 | -2.32 |
| RBL2 | SID442895405 | -0.291 | 0.326 | -0.533 |
| RINL | SID442897712 | 0.189 | -0.752 | -0.684 |
| LOC441121 (retired record) | SID442899021 | -0.685 | -0.354 | -0.663 |
| UPF1 | SID442885941 | 1.03 | 1.24 | 1.68 |
| LOC401410 (retired record) | SID442899297 | -0.559 | -0.548 | -0.699 |
| ESYT1 | SID442886800 | 0.591 | 1.12 | 1.47 |
| LINC00299 | SID442901348 | -0.915 | -0.888 | -0.858 |
| FCRLB | SID442895953 | 0.729 | -0.303 | -1.1 |
| SLC25A35 | SID442887552 | 3.16 | 1.49 | -1.98 |
| PRIMA1 | SID442886582 | 1.44 | 0.609 | 1.31 |
| STAT1 | SID442895827 | -0.557 | -0.393 | 0.319 |
| COL27A1 | SID442890800 | 0.419 | 0.438 | 0.244 |
| CLYBL | SID442883852 | 1.95 (active) | 2.53 | 2.23 |
| GPN3 | SID442886094 | 0.785 | 1.7 | 1.33 |
| MRPL18 | SID442888487 | -0.101 | 0.552 | 1.68 |
| LINC00596 | SID442897137 | -0.938 | 0.00952 | -0.125 |
| KRTAP5-6 | SID442903442 | -0.77 | -1.77 | -1.35 |
| IL6ST-DT | SID442888631 | 0.695 | 0.445 | 0.922 |
| AHSP | SID442885398 | 1.13 | 2 | 1.46 |
| SLC39A3 | SID442884900 | 1.99 | 1.43 | 1.97 |
| RPL19P21 | SID442896557 | -0.463 | -0.0316 | -0.363 |
| NTF3 | SID442883796 | 1.35 (active) | 3.07 | 2.52 |
| CSNK1D | SID442892208 | -0.479 | 1.28 | -0.207 |
| PCF11 | SID442899967 | -0.328 | -1.48 | -0.271 |
| LINC01567 | SID442895387 | -0.159 | 0.00754 | -0.342 |
| VSX2 | SID442899010 | -0.757 | -0.883 | -0.059 |
| RUVBL2 | SID442895230 | 0.131 | 0.295 | -0.869 |
| BCAT2 | SID442896201 | -0.441 | 0.166 | -0.469 |
| GBF1 | SID442894089 | -1.27 | 1.23 | -0.0399 |
| PHAF1 | SID442890987 | 0.501 | 0.55 | -0.0153 |
| PADI2 | SID442898095 | -0.148 | -1.1 | -0.134 |
| ESS2 | SID442885588 | 2.25 | 0.555 | 1.55 |
| ESS2 | SID442888878 | 1.61 | 1.53 | -1.2 |
| CCDC87 | SID442899446 | -1.11 | 0.888 | -1.65 |
| MYBPH | SID442894093 | -0.561 | 0.362 | 0.122 |
| HAUS7 | SID442892195 | 0.269 | 0.424 | -0.0982 |
| PKN3 | SID442896734 | -0.223 | -0.106 | -0.591 |
| GSS | SID442887633 | 0.353 | 1.31 | 0.96 |
| HABP2 | SID442904685 | -1.86 | -1.51 | -2.04 |
| SLC25A1 | SID442900451 | -0.975 | -0.805 | -0.5 |
| FAM174B | SID442888597 | 0.185 | 1.01 | 0.878 |
| CDON | SID442886240 | 2.1 | 0.78 | 0.778 |
| TMTC2 | SID442883893 | 1.74 (active) | 2.8 | 2.02 |
| TOMM70 | SID442883194 | 3.83 (active) | 4.21 | 4.05 |
| LOC440864 (retired record) | SID442891207 | -0.487 | 0.821 | 0.616 |

Called active, among the entries above:
| target | PubChem SID | robust z-score, replicate 1 | robust z-score, replicate 2 | robust z-score, replicate 3 |
| --- | --- | --- | --- | --- |
| LINC01097 | SID442884488 | -2.09 (active) | -2.21 | -2.32 |
| CLYBL | SID442883852 | 1.95 (active) | 2.53 | 2.23 |
| NTF3 | SID442883796 | 1.35 (active) | 3.07 | 2.52 |
| TMTC2 | SID442883893 | 1.74 (active) | 2.8 | 2.02 |
| TOMM70 | SID442883194 | 3.83 (active) | 4.21 | 4.05 |
